Assay results taken from the supplement of paper PMC10849652.
This is one part of the list. Residues, ends and D or L forms follow the SMILES beside them. *: point of attachment. Cbz = O=C(OCc1ccccc1)*

Amino acid sequences for entries named in this document (tags omitted). A change or cut given only in a name is not applied to a line headed by its entry.
UniProt Q9HCE5: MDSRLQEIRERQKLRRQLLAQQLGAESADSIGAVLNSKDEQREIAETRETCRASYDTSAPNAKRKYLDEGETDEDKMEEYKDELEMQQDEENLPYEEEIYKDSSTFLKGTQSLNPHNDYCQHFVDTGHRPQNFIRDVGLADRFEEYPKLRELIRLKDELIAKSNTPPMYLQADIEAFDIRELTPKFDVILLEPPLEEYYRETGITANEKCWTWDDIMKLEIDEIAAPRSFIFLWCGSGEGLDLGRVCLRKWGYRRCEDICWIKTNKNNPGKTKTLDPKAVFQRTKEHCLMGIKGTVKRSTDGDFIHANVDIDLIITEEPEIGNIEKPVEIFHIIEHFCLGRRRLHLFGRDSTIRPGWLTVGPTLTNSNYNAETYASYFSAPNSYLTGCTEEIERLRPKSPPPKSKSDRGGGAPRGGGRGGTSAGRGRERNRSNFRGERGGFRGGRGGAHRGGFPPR
UniProt Q86V88: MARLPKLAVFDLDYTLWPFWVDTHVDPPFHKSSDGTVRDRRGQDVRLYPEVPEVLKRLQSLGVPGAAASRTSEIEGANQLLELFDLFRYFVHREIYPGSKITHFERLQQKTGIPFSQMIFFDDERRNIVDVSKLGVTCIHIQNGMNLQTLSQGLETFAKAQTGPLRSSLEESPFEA
UniProt Q9NRN9: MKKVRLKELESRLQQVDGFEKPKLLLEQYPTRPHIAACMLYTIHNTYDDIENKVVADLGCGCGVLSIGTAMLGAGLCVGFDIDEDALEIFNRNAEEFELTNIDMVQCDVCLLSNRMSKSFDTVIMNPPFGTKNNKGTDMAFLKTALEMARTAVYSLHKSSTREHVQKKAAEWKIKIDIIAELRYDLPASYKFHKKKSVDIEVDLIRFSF
UniProt O60244: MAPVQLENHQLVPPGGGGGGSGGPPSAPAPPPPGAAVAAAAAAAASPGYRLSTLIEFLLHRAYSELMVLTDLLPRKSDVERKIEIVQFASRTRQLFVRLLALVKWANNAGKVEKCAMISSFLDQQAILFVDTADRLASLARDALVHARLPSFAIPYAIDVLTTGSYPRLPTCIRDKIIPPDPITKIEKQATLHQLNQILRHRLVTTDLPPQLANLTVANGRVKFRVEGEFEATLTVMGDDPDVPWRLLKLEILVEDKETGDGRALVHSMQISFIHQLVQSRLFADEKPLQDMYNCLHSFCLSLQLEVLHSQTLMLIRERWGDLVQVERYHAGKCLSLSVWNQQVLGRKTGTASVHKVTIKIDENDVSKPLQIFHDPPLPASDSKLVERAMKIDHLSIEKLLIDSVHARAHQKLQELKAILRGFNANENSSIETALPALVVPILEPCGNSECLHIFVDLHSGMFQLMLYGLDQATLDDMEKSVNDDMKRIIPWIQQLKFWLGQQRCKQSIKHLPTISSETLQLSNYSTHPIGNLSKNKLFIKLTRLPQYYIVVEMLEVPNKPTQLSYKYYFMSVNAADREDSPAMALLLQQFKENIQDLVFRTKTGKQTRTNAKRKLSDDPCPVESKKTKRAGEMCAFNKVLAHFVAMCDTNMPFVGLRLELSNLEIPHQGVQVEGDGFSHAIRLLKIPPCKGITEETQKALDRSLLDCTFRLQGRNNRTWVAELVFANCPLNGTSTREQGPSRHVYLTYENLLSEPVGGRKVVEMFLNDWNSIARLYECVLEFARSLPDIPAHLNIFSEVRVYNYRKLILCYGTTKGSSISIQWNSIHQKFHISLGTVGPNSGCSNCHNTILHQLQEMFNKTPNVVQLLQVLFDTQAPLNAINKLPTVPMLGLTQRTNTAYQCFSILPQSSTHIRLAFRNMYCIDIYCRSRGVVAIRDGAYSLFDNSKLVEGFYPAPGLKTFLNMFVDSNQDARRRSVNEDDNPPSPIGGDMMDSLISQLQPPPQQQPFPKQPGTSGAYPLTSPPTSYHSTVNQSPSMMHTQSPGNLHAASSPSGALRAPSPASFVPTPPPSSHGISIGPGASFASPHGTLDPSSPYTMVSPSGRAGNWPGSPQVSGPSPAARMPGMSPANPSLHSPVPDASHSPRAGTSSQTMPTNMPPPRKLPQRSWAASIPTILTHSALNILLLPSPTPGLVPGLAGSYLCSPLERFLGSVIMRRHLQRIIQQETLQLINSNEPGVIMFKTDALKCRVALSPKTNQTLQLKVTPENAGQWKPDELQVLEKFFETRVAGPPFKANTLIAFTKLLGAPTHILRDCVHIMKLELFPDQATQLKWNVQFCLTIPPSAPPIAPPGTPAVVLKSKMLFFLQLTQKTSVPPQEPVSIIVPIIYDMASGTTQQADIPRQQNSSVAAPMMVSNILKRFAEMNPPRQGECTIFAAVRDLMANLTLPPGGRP
UniProt O95568: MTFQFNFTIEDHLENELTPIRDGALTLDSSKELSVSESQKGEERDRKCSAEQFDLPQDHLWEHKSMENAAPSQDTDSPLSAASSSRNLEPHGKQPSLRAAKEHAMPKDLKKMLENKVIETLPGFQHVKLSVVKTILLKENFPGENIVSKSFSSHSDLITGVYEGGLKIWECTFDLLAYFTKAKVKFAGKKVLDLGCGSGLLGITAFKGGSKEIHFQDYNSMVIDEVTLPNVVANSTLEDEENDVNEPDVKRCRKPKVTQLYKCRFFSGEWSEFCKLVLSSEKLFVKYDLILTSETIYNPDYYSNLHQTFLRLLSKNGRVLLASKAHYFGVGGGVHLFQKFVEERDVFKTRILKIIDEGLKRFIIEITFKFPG
UniProt Q9NWR8: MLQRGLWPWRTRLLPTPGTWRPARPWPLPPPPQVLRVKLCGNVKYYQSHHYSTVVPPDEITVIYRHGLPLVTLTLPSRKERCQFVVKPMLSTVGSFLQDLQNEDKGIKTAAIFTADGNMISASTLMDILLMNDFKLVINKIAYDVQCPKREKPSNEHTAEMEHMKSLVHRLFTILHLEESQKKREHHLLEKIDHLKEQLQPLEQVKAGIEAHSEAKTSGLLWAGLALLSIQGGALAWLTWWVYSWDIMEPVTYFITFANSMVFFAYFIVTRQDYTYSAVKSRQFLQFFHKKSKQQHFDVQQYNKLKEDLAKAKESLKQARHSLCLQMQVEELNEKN
UniProt P26572: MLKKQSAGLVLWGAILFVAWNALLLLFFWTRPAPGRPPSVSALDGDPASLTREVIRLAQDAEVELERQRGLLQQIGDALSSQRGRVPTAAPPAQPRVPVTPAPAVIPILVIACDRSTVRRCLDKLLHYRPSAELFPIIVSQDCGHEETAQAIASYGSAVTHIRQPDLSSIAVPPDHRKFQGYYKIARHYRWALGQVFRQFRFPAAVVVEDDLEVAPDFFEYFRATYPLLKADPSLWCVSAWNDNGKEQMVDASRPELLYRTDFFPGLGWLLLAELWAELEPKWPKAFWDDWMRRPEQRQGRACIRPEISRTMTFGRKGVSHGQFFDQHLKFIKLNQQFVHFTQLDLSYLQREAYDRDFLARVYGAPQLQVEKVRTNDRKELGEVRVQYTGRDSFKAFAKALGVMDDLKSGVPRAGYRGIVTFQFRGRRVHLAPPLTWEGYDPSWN
UniProt P40925: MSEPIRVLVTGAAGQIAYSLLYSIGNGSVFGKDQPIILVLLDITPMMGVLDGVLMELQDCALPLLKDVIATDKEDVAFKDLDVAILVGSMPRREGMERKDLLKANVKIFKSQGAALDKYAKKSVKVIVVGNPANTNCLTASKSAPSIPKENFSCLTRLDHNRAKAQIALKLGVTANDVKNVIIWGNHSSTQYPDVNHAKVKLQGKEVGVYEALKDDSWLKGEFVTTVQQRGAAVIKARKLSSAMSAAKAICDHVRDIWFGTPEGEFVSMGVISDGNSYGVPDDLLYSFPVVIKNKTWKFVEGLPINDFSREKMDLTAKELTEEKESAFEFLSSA
UniProt O14880: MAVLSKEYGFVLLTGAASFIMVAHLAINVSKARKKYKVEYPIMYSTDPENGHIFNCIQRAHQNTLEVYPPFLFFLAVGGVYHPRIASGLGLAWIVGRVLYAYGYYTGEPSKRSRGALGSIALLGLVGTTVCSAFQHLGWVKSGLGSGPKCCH
UniProt Q8NHS3: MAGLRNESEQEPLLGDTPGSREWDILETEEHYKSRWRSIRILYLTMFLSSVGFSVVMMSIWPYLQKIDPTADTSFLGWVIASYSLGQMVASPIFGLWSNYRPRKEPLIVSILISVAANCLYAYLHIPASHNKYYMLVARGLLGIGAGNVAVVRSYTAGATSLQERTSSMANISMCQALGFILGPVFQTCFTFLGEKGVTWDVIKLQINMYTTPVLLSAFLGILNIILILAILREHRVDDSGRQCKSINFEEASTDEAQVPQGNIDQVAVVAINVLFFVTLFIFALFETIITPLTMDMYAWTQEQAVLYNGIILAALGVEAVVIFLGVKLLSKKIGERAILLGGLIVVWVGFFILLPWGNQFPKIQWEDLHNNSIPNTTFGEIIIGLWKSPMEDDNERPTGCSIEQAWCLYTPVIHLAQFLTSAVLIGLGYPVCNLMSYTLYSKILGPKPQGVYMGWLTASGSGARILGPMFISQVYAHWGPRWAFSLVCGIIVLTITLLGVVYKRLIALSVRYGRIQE
UniProt Q9GZU1, whole entry, looked up: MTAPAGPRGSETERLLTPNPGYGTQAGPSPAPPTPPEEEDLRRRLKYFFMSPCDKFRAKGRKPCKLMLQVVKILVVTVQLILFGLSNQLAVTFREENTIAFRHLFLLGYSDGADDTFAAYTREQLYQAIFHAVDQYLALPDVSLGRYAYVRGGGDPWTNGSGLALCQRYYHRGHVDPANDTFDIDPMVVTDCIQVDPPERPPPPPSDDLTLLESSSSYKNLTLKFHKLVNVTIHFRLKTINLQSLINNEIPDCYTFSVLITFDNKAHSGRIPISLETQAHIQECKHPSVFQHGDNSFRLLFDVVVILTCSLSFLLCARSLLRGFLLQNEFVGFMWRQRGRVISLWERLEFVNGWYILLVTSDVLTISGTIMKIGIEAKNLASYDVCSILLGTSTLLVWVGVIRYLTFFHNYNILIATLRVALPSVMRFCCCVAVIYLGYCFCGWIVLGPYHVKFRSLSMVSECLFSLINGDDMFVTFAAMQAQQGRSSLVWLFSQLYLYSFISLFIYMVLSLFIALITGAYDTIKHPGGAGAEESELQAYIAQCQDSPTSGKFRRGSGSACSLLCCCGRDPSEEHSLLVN
UniProt Q9NVC6: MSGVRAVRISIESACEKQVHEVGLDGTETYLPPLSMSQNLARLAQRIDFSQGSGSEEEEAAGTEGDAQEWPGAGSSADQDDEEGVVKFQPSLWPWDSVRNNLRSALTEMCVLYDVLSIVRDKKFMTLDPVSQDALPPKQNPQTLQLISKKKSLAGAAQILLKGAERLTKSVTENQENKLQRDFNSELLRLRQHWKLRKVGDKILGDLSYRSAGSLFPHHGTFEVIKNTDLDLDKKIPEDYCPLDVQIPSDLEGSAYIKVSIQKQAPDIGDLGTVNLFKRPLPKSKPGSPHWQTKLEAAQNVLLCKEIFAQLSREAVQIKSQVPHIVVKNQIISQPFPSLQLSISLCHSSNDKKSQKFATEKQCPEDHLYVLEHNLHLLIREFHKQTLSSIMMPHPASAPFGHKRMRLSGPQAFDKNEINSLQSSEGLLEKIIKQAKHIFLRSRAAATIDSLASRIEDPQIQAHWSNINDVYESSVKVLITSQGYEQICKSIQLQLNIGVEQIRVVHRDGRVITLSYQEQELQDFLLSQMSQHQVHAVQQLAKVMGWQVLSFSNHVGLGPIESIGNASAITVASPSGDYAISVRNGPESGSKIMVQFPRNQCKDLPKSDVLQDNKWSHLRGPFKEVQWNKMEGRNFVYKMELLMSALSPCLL
UniProt Q6N075: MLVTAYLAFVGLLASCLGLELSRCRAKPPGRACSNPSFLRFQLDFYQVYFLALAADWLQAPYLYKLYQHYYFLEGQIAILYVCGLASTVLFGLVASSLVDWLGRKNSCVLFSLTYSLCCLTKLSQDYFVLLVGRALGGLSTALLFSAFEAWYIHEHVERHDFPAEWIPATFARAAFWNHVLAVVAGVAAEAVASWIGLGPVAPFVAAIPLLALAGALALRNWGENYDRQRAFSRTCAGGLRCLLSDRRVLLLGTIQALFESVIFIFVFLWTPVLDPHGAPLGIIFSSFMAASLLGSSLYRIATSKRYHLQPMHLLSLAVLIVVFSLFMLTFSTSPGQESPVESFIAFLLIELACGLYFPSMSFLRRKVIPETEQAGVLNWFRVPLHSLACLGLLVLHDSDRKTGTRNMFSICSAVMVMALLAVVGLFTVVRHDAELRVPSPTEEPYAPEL
UniProt Q9NS73: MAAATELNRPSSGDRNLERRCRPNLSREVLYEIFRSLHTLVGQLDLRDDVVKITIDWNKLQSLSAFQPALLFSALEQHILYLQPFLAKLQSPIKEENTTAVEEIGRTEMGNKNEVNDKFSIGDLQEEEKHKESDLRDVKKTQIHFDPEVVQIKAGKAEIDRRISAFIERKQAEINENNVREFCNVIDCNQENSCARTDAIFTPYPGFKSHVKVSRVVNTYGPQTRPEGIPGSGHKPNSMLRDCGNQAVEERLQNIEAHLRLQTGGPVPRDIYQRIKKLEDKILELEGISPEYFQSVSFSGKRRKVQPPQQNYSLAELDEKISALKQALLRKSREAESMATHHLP

How the values were obtained:
Assay in all cases: log2 fold change, soluble protein after heating vs DMSO (PISA); higher = thermal stabilisation; K562 cells, 10 uM, 30 min; active = over 0.2 and 3.5 SD of the protein, either way, in both replicates (recomputed)
IRAK-1-4 Inhibitor I = compound: C1COCCN1CCN2C3=CC=CC=C3N=C2NC(=O)C4=CC(=CC=C4)[N+](=O)[O-] [IRAK-1-4 Inhibitor I]
Summary of the method: (§1)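 Thermal stability values are relative to control samples and come from duplicates. They are expressed as log2 fold changes. For measurement, K562 cells (2×10^6 cells/mL) received 10 μM compound for 30 min, and aliquots were heated for 3 min over 48°C-58°C, pooled, and extracted at 4°C in PBS with 0.5% NP-40. Soluble protein, the supernatant after 21,000xg for 90 min, was quantified by TMTpro 16plex LC-MS/MS with equalised channel sums.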

ibrutinib = compound: C=CC(=O)N1CCC[C@@H](n2nc(-c3ccc(Oc4ccccc4)cc3)c3c(N)ncnc32)C1 [ibrutinib]
Summary of the method: as §1

[1] = compound: CC(=O)c1cnc2ccc(-c3cc(Cl)c(O)c(Cl)c3)nc2c1N[C@H]1CC[C@H](CN(C)C)CC1
Summary of the method: as §1

ralimetinib = compound: CC(C)(C)Cn1c(N)nc2ccc(-c3[nH]c(C(C)(C)C)nc3-c3ccc(F)cc3)nc21 [ralimetinib]
Summary of the method: as §1

[2] = compound: CC(C)(O)CC(=O)NCCn1ccc2ncnc(Nc3ccc(Oc4cccc(C(F)(F)F)c4)c(Cl)c3)c21
Summary of the method: as §1

[3] = compound: CC(C)C1=C2N=C(C=C(N2N=C1)NCC3=CC=CC=C3)NCCCCCCN
Summary of the method: as §1

[4] = compound: CC(C)C[C@@H](C=O)NC(=O)[C@H](CC(C)C)NC(=O)[C@H](CC(C)C)NC(=O)OCc1ccccc1
Summary of the method: as §1

pinometostat = compound: CC(C)N(C[C@H]1O[C@@H](n2cnc3c(N)ncnc32)[C@H](O)[C@@H]1O)[C@H]1C[C@@H](CCc2nc3cc(C(C)(C)C)ccc3[nH]2)C1 [pinometostat]
Summary of the method: as §1

[5] = compound: CC1=C(C(CC(=O)N1)C2=CC=C(C=C2)C(F)(F)F)C(=O)NC3=C(C=C4C(=C3)C=NN4)F
Summary of the method: as §1

[6] = compound: CC1=C(C2=C(C=C1)C(=O)C3=CC=CC=C3N2CCCN)C
Summary of the method: as §1

Target	log2 fold change (IRAK-1-4 Inhibitor I)	log2 fold change (ibrutinib)	log2 fold change [1]	log2 fold change (ralimetinib)	log2 fold change [2]	log2 fold change [3]	log2 fold change [4]	log2 fold change (pinometostat)	log2 fold change [5]	log2 fold change [6]
MESD (UniProt Q14696)	inactive: 0.001	inactive: -0.041	inactive: 0.001	inactive: -0.146	inactive: 0.024	inactive: -0.008	inactive: -0.064	inactive: -0.006	inactive: 0.006	inactive: 0.028
METTL14 (UniProt Q9HCE5)	inactive: 0.035	inactive: -0.038	inactive: -0.02	inactive: 0.014	inactive: -0.015	inactive: -0.015	inactive: -0.02	inactive: 0.012	inactive: -0.088	inactive: 0.048
MIA2 (UniProt Q96PC5)	inactive: -0.036	inactive: 0.008	inactive: -0.059	inactive: -0.003	inactive: 0.03	inactive: -0.155	inactive: 0.035	inactive: 0.043		inactive: 0.032
MFN1 (UniProt Q8IWA4)	inactive: 0.057	inactive: -0.009	inactive: -0.047	inactive: -0.027	inactive: -0.043	active: -0.607	inactive: 0.078	inactive: 0.018		inactive: 0.098
MCM6 (UniProt Q14566)	inactive: 0.024	inactive: -0.008	inactive: -0.036	inactive: -0.028	inactive: -0.005	inactive: -0.063	inactive: -0.048	inactive: -0.026	inactive: 0.002	inactive: -0.036
MEMO1 (UniProt Q9Y316)	inactive: 0.071	inactive: -0.04	inactive: -0.033	inactive: -0.023	inactive: -0.03	inactive: -0.011	inactive: -0.02	inactive: 0.01	inactive: 0.037	inactive: 0.023
MDP1 (UniProt Q86V88)	inactive: 0.033	inactive: -0.026	inactive: 0.014	inactive: -0.068	inactive: 0.006	inactive: 0.109	inactive: -0.062	inactive: 0.02	inactive: 0.006	inactive: -0.131
METTL5 (UniProt Q9NRN9)	inactive: 0.02	inactive: -0.006	inactive: 0.046	inactive: -0.044	inactive: 0.027	inactive: 0.078	inactive: 0.005	inactive: -0.041	inactive: 0.005	inactive: -0.031
MED14 (UniProt O60244)	inactive: -0.058	inactive: -0.063	inactive: -0.347	inactive: 0.084	inactive: -0.07	inactive: -0.144	inactive: 0.066	inactive: 0.119	inactive: 0.003	inactive: 0.363
METTL18 (UniProt O95568)	inactive: 0.01	inactive: 0.019	inactive: 0.013	inactive: -0.036	inactive: 0.016	inactive: -0.009	inactive: -0.003	inactive: 0.023		inactive: 0.072
METTL7A (UniProt Q9H8H3)	inactive: 0.063	inactive: 0.048	inactive: -0.014	inactive: 0.001	inactive: 0.059	inactive: 0.118	inactive: -0.044	inactive: -0.022	inactive: -0.01	inactive: 0.077
MCUB (UniProt Q9NWR8)	inactive: 0.186	inactive: -0.009	inactive: -0.076	inactive: 0	inactive: -0.135	inactive: -0.12	inactive: -0.017	inactive: -0.108	inactive: -0.04	inactive: 0.006
MED18 (UniProt Q9BUE0)	inactive: -0.027	inactive: 0	inactive: -0.071	inactive: -0.079	inactive: -0.155	inactive: -0.031	inactive: 0.023	inactive: 0.01	inactive: 0.065	inactive: 0.001
MGAT1 (UniProt P26572)	inactive: -0.021	inactive: 0.01	inactive: -0.087	inactive: -0.029	inactive: 0.078	inactive: 0.058	inactive: -0.009	inactive: -0.006	inactive: -0.071	inactive: -0.016
MDH1 isoform 3 (UniProt P40925)	inactive: 0.043	inactive: -0.002	inactive: 0.021	inactive: 0.026	inactive: 0.024	inactive: 0.061	inactive: -0.038	inactive: -0.067	inactive: -0.006	inactive: 0
MGST3 (UniProt O14880)	inactive: 0.115	inactive: 0.042	inactive: 0.036	inactive: 0.062	inactive: 0.041	inactive: 0.073	inactive: 0.006	inactive: -0.025		inactive: -0.014
MDC1 (UniProt Q14676)	inactive: -0.012	inactive: -0.013	inactive: -0.013	inactive: 0.062	inactive: 0.122	inactive: -0.321	inactive: 0.176	inactive: 0.133		inactive: 0.11
MFSD8 (UniProt Q8NHS3)	inactive: 0.062	inactive: 0.13	inactive: 0.036	inactive: 0.19	inactive: 0.067	active: -0.446	inactive: 0.08	inactive: 0.101		inactive: 0.124
MDN1 (UniProt Q9NU22)	inactive: -0.011	inactive: -0.046	inactive: -0.126	inactive: -0.015	inactive: -0.24	inactive: -0.22	inactive: -0.029	inactive: -0.009		inactive: 0.005
MED12 isoform 2 (UniProt Q93074)	inactive: -0.057	inactive: -0.098	active: -0.747	inactive: -0.05	inactive: -0.024	inactive: -0.291	inactive: -0.005	inactive: 0.251		inactive: -0.04
MCM10 (UniProt Q7L590)	inactive: 0.096	inactive: 0.018			inactive: -0.115	inactive: 0.015		inactive: -0.108		inactive: -0.037
MCOLN1 (UniProt Q9GZU1)	inactive: -0.055	inactive: -0.039		inactive: 0.042	inactive: 0.12	inactive: -0.244	inactive: 0.177	inactive: -0.068	inactive: 0.031	
MED17 (UniProt Q9NVC6)	inactive: -0.076		active: -0.371	inactive: 0.12	inactive: -0.022	inactive: -0.209	inactive: 0.119	inactive: 0.124		inactive: 0.182
MED22 (UniProt Q15528)	inactive: 0.013	inactive: 0.076	inactive: -0.058	inactive: 0.064	inactive: 0.039	inactive: -0.016	inactive: 0.076	inactive: 0.012		inactive: 0.096
MBNL1 isoform 5 (UniProt Q9NR56)	inactive: 0.015	inactive: 0.169		inactive: 0.105	inactive: -0.091		inactive: 0	inactive: -0.008	inactive: -0.103	inactive: 0.116
MGRN1 isoform 2 (UniProt O60291)	inactive: 0.062	inactive: -0.003	inactive: 0.116	inactive: -0.015		inactive: -0.225	inactive: 0.114	inactive: 0.041		inactive: -0.098
MFSD5 isoform 2 (UniProt Q6N075)	inactive: -0.068	inactive: -0.016	inactive: -0.007	inactive: 0.019	inactive: -0.017	inactive: -0.053	inactive: 0.003	inactive: 0.049		inactive: -0.061
MBIP (UniProt Q9NS73)	inactive: 0.084	inactive: 0.115	inactive: 0.145	inactive: -0.007		inactive: -0.001	inactive: -0.077	inactive: -0.022		inactive: 0.022
MED25 isoform 3 (UniProt Q71SY5)	inactive: -0.087	inactive: 0.039	inactive: -0.086	inactive: -0.099		inactive: 0.016	inactive: -0.061	inactive: 0.173		inactive: 0.053

An excerpt of these results, as a markdown table.

| Target | log2 fold change (IRAK-1-4 Inhibitor I) | log2 fold change (ibrutinib) | log2 fold change [1] | log2 fold change (ralimetinib) | log2 fold change [2] | log2 fold change [3] | log2 fold change [4] | log2 fold change (pinometostat) | log2 fold change [5] | log2 fold change [6] |
| --- | --- | --- | --- | --- | --- | --- | --- | --- | --- | --- |
| MDH1 isoform 3 (UniProt P40925) | inactive: 0.043 | inactive: -0.002 | inactive: 0.021 | inactive: 0.026 | inactive: 0.024 | inactive: 0.061 | inactive: -0.038 | inactive: -0.067 | inactive: -0.006 | inactive: 0 |
| MGST3 (UniProt O14880) | inactive: 0.115 | inactive: 0.042 | inactive: 0.036 | inactive: 0.062 | inactive: 0.041 | inactive: 0.073 | inactive: 0.006 | inactive: -0.025 |  | inactive: -0.014 |
